{"source": "PubChem BioAssay AID743121, NCATS, 2013", "test": "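Partners whose loss is lethal together with topoisomerase I blockade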 (primary screen)", "cells": "MDA-MB-231 cells, a human breast cancer line", "reagents": "single siRNA against human genes, 20 nM siRNA (0.8 pmol per well)", "duration": "120 h (drug added 48 h after transfection, read 72 h later)", "treatment": "camptothecin 20 nM (about EC30) for 72 h; vehicle 0.1% DMSO in parallel plates", "detection": "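CellTiter-Glo ATP signal, scaled to control siRNA as percent viability; sensitisation given as log2 of untreated divided by camptothecin-treated viability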", "reading the numbers": "log2 vehicle/camptothecin viability: higher = stronger sensitisation to camptothecin", "call rule": "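Active genes have an RSA gene-level p-value below 0.001, computed from the ratios of their separate siRNAs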", "note": "In all, the deposit lists about 26,000 reagents; this is an unselected part. Of all reagents, 167 (0.63%) are marked active. 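Calls are per gene from RSA p-values that are not deposited; an individual active-marked siRNA can sensitise only weakly.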 Reagents against one gene are numbered here. Not all columns of the deposit are shown."}
{"gene symbol": "POLH", "reagent": 1, "log2 vehicle/camptothecin viability": -0.193, "call": "inactive"}
{"gene symbol": "POLH", "reagent": 2, "log2 vehicle/camptothecin viability": -0.219, "call": "inactive"}
{"gene symbol": "POLH", "reagent": 3, "log2 vehicle/camptothecin viability": -0.333, "call": "inactive"}
{"gene symbol": "TAS1R1", "reagent": 1, "log2 vehicle/camptothecin viability": -0.488, "call": "inactive"}
{"gene symbol": "TAS1R1", "reagent": 2, "log2 vehicle/camptothecin viability": 0.262, "call": "inactive"}
{"gene symbol": "TAS1R1", "reagent": 3, "log2 vehicle/camptothecin viability": 0.515, "call": "inactive"}
{"gene symbol": "TAS1R1", "reagent": 4, "log2 vehicle/camptothecin viability": -0.0879, "call": "inactive"}
{"gene symbol": "IFNL1", "reagent": 1, "log2 vehicle/camptothecin viability": 0.027, "call": "inactive"}
{"gene symbol": "IFNL1", "reagent": 2, "log2 vehicle/camptothecin viability": -0.0179, "call": "inactive"}
{"gene symbol": "IFNL1", "reagent": 3, "log2 vehicle/camptothecin viability": -0.258, "call": "inactive"}
{"gene symbol": "IFNL1", "reagent": 4, "log2 vehicle/camptothecin viability": 0.129, "call": "inactive"}
{"gene symbol": "ADGRD1", "reagent": 1, "log2 vehicle/camptothecin viability": -0.032, "call": "inactive"}
{"gene symbol": "ADGRD1", "reagent": 2, "log2 vehicle/camptothecin viability": -0.306, "call": "inactive"}
{"gene symbol": "ADGRD1", "reagent": 3, "log2 vehicle/camptothecin viability": -0.282, "call": "inactive"}
{"gene symbol": "ADGRD1", "reagent": 4, "log2 vehicle/camptothecin viability": -0.0569, "call": "inactive"}
{"gene symbol": "RAB32", "reagent": 1, "log2 vehicle/camptothecin viability": -0.169, "call": "inactive"}
{"gene symbol": "RAB32", "reagent": 2, "log2 vehicle/camptothecin viability": -0.34, "call": "inactive"}
{"gene symbol": "RAB32", "reagent": 3, "log2 vehicle/camptothecin viability": -0.162, "call": "inactive"}
{"gene symbol": "RAB32", "reagent": 4, "log2 vehicle/camptothecin viability": -0.576, "call": "inactive"}
{"gene symbol": "SAP30", "reagent": 1, "log2 vehicle/camptothecin viability": -0.102, "call": "inactive"}
{"gene symbol": "SAP30", "reagent": 2, "log2 vehicle/camptothecin viability": -0.144, "call": "inactive"}
{"gene symbol": "SAP30", "reagent": 3, "log2 vehicle/camptothecin viability": 0.0474, "call": "inactive"}
{"gene symbol": "TENM1", "reagent": 1, "log2 vehicle/camptothecin viability": -0.118, "call": "inactive"}
{"gene symbol": "TENM1", "reagent": 2, "log2 vehicle/camptothecin viability": -0.268, "call": "inactive"}
{"gene symbol": "TENM1", "reagent": 3, "log2 vehicle/camptothecin viability": -0.223, "call": "inactive"}
{"gene symbol": "TENM1", "reagent": 4, "log2 vehicle/camptothecin viability": -0.11, "call": "inactive"}
{"gene symbol": "RSPH10B", "reagent": 1, "log2 vehicle/camptothecin viability": -0.359, "call": "inactive"}
{"gene symbol": "RSPH10B", "reagent": 2, "log2 vehicle/camptothecin viability": 0.363, "call": "inactive"}
{"gene symbol": "RSPH10B", "reagent": 3, "log2 vehicle/camptothecin viability": 0.0125, "call": "inactive"}
{"gene symbol": "RSPH10B", "reagent": 4, "log2 vehicle/camptothecin viability": -0.146, "call": "inactive"}
{"gene symbol": "CYP27C1", "reagent": 1, "log2 vehicle/camptothecin viability": -0.077, "call": "inactive"}
{"gene symbol": "CYP27C1", "reagent": 2, "log2 vehicle/camptothecin viability": -0.202, "call": "inactive"}
{"gene symbol": "CYP27C1", "reagent": 3, "log2 vehicle/camptothecin viability": -0.0182, "call": "inactive"}
{"gene symbol": "CYP27C1", "reagent": 4, "log2 vehicle/camptothecin viability": -0.23, "call": "inactive"}
{"gene symbol": "COPG1", "reagent": 1, "log2 vehicle/camptothecin viability": -0.325, "call": "inactive"}
{"gene symbol": "COPG1", "reagent": 2, "log2 vehicle/camptothecin viability": 0.0998, "call": "inactive"}
{"gene symbol": "COPG1", "reagent": 3, "log2 vehicle/camptothecin viability": -0.0785, "call": "inactive"}
{"gene symbol": "COPG1", "reagent": 4, "log2 vehicle/camptothecin viability": -0.638, "call": "inactive"}

Reformatted: results already given.
gene symbol	reagent	log2 vehicle/camptothecin viability	call
RSPH10B	2	0.363	inactive
RSPH10B	3	0.0125	inactive
RSPH10B	4	-0.146	inactive
CYP27C1	1	-0.077	inactive
